The target in the experiment is MYCN protein (overexpressed) (UniProt P04198). Description: affinity purification with mass spectrometry; MYCN immunoprecipitated from SY5Y-MYCN cells (un-induced, 4 h, 24 h and 48 h MYCN induction) with Protein A/G PLUS-agarose beads conjugated to MYCN antibody or IgG; three biological and two technical replicates per condition.

Chains of the proteins cited; added tags and fusions are not shown.
UniProt P04198: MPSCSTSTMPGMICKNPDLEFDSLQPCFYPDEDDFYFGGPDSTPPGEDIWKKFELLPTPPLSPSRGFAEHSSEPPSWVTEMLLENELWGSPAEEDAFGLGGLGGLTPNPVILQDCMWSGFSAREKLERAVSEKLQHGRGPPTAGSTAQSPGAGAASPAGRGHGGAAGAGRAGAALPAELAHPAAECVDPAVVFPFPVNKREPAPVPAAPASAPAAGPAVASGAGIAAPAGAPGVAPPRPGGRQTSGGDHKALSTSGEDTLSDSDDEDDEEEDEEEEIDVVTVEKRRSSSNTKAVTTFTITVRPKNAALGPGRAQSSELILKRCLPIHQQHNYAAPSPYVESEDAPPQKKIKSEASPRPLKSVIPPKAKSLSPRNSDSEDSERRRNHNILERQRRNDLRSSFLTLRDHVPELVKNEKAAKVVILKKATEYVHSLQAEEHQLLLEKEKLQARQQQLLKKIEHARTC
UniProt P35222: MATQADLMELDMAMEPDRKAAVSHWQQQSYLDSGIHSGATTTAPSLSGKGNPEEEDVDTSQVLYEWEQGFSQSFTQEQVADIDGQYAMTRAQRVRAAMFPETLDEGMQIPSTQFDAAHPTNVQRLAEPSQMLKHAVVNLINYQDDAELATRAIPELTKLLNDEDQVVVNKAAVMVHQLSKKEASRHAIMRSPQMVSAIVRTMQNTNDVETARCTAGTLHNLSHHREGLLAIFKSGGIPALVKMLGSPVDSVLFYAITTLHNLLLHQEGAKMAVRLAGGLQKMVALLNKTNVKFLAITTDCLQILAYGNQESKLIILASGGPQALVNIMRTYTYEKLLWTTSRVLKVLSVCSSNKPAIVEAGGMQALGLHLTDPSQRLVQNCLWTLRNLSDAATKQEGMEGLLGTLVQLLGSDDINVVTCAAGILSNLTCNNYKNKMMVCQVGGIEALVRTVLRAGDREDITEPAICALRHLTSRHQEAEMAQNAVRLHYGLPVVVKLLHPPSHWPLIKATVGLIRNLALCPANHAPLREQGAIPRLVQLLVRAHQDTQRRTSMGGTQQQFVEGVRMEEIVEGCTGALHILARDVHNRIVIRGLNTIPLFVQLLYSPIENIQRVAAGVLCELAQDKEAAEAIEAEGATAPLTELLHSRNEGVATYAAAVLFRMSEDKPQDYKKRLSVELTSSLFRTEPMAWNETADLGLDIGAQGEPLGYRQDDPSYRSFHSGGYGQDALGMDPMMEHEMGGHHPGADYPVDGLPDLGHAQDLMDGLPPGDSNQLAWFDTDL
UniProt Q92769: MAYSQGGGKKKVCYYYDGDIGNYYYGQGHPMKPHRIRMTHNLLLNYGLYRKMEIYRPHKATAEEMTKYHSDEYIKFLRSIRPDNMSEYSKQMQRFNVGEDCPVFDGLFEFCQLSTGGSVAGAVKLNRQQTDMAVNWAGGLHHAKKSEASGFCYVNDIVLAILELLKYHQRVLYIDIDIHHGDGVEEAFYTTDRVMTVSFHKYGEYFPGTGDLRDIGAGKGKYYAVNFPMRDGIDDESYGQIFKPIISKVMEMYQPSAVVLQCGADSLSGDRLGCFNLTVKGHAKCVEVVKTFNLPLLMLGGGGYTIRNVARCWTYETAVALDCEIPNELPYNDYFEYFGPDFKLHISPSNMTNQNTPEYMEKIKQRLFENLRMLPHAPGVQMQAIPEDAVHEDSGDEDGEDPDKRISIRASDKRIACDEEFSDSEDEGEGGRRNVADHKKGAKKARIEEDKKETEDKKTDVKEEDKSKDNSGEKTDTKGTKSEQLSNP

Results are given in words; binding and its absence hold for the method and conditions named. Binding seen in cells or lysates may run through a third protein. A yes stands for co-enrichment or nearness to the bait. Other partners may have been found.

For the substance “β-catenin (CTNNB1) (from UniProt P35222 1-781)”, the binding entry is “binds”. Consider HDAC2 (from UniProt Q92769 1-488), for which the binding result was “binds”.
